Measured values reported in patent publication US7238491, “Pregnane X receptor method” (SmithKline Beecham Corporation).
A negative result means that nothing was seen under these conditions. Protein sequences can lack the tags named with them.

Molecular target: T1, hPXR (Homo sapiens) (UniProt O75469)
T1 sequence: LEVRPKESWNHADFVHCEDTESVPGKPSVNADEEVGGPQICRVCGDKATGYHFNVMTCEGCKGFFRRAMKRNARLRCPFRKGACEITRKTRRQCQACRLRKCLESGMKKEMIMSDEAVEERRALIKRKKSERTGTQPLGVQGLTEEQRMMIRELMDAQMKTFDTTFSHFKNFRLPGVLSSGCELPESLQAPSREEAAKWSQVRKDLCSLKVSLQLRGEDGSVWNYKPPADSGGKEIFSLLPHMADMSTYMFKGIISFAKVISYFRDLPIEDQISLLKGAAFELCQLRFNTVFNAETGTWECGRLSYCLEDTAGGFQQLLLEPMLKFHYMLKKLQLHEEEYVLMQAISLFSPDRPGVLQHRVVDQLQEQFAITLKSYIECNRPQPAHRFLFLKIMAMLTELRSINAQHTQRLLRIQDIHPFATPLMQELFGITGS
Experiment: EMSA
Conditions: hPXR alone without RXR; protein translated in vitro; label: 32P (probe)

## GATCAATATGAACTCAAAGGAGGTCAGTG (double strand) [CYP3A4 IR6 PXRE]
  binding result: no binding
